Screen size: about 320,000 compounds; about 22,000 (6.9%) were called active. The shares of active, inactive and inconclusive entries below differ from those in the screen. Calls come from the whole dose curve; as a rule, active = well fitted inhibition curve with a large enough effect; inconclusive = small, poorly fitted or top-dose-only effect, or another doubt; inactive = no such curve, though single readings can be large or run the other way. Potencies of inconclusive entries are doubtful fits and often do not repeat.
Test: Primary qHTS for delayed death inhibitors of the malarial parasite plastid, 96 hour incubation
Conditions: P. falciparum luciferase reporter growth; series mostly up to 28.7 µM
Procedure, shortened: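 Parasite growth measured via integrated firefly luciferase reporter in P. falciparum. Infected erythrocytes at 2% hematocrit, 0.05% parasitemia final were treated 96 hours at 37 C under 5% CO2, and luminescence was read.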
Potency is the fitted concentration of half-maximal effect.

Structure (SMILES) | Potency
O=C(NCc1ccc(F)cc1)C1CCCN(S(=O)(=O)c2ccc(-n3cnnn3)cc2)C1 (stereo unspecified) | inactive
COC(=O)c1ccccc1NC(=O)Nc1ccc(C(=O)N2CCCC2)cc1 | inconclusive: 0.0033 µM [inhibitor, full curve, poor fit]
CC(C)(CNC(=O)COc1ccccc1Cc1ccccc1)N1CCOCC1 | inactive
O=C1CCCC/C1=C/Nc1cccc(C(F)(F)F)c1 | inconclusive: 2.62 µM [inhibitor, full curve]
CC(=O)c1cnc2c(-c3ccccc3)c(-c3ccccc3)nn2c1C | inconclusive: 8.28 µM [inhibitor, partial curve, poor fit]
O=S(=O)(CCN(CCS(=O)(=O)C(F)(F)F)CC1CCCO1)C(F)(F)F (stereo unspecified) | inconclusive: 11.7 µM [inhibitor, single point]
CCc1cccc(C)c1NC(=O)Nc1c(Br)cnn1C | inactive
OCCNC(=S)Nc1cccc(Cl)c1Cl | inactive
CC(C)Nc1nc(Oc2ccc(=O)n(-c3ccccc3)n2)nc(N(C)C)n1 | inactive
COc1cccc(-c2csc(N3CCN(C(=S)Nc4cccc(C)c4)CC3)n2)c1 | inconclusive: 10.4 µM [inhibitor, single point]
O=C1C2C3C=CC(C3=C3CCCCC3)C2C(=O)N1Cc1ccccc1 (stereo unspecified) | inconclusive: 9.28 µM [inhibitor, partial curve, poor fit]
O=C(O)c1[nH]c(=O)[nH]c(=O)c1F | active: 0.0033 µM
COc1ccc(NC(=O)c2ccccc2O)c(OC)c1 | inconclusive: 11.7 µM [inhibitor, partial curve]
COC(=O)c1cn(NC(=O)c2ccc(OC)c([N+](=O)[O-])c2)c(=O)c2ccccc12 | inconclusive: 8.28 µM [inhibitor, partial curve, poor fit]
O=C1CCC(=O)N1c1ccc(CSc2nnnn2C2CCCCC2)cc1 | inconclusive: 13.1 µM [inhibitor, single point]
O=C(Nc1ccnn1C1CCN(C/C=C/c2ccccc2)CC1)C1CCCC1 | inconclusive: 18.5 µM [inhibitor, single point]
Cc1nn(Cc2ccccc2Cl)c2sc(C(=O)OC3CCCC3=O)cc12 (stereo unspecified) | inconclusive: 1.85 µM [inhibitor, partial curve, poor fit]
O=C(O/N=C(/c1ccccc1)c1ccncc1)c1cccc(F)c1 | inconclusive: 18.5 µM [inhibitor, single point]
CCN(C(=O)CSc1nnc(-c2ccco2)n1C)c1c(N)n(Cc2ccccc2)c(=O)[nH]c1=O | inconclusive: 4.15 µM [inhibitor, full curve, poor fit]
CC1CCCCN1C(=O)CSc1nnc(-c2ccco2)o1 (stereo unspecified) | active: 5.22 µM
COc1ccc(S(=O)(=O)N2CCCCC2)cc1C(=O)Nc1cc(C)on1 | inconclusive: 13.1 µM [inhibitor, single point]
COc1cc2cc(CN(Cc3nnnn3C3CCCC3)C3CCCC3)c(=O)[nH]c2cc1OC | inactive
CC(C)OC(=O)c1cc(NC(=S)Nc2ccc([N+](=O)[O-])cc2)cc(C(=O)OC(C)C)c1 | inactive
Cc1cccc(NC(=S)NC2CC3CCCC(C2)N3Cc2cccs2)c1C (stereo unspecified) | active: 5.86 µM

Structure (SMILES) | Potency
O=C(NNc1nc2cc3c(cc2s1)OCO3)c1cccc(F)c1 | inconclusive: 18.5 µM [inhibitor, single point]
O=C(COC(=O)C1CC1)Nc1ccc2c(c1)OCO2 | inactive
O=C(COC(=O)CCc1nc2ccccc2c(=O)[nH]1)Nc1ccccc1OC(F)F | inactive
Cc1nn2c(NCCCn3ccnc3)cc(C(C)C)nc2c1-c1ccccc1 | active: 8.28 µM
CCN1CCN(S(=O)(=O)c2ccc(C(C)(C)C)cc2)CC1 | inconclusive: 11.7 µM [inhibitor, single point]
COCCN(Cc1ccccc1)C(=O)c1cc(S(=O)(=O)N2CCCCCC2)ccc1OC | inconclusive: 8.28 µM [inhibitor, partial curve]
Cn1c(=O)c2c(nc(SCC(=O)NCc3ccco3)n2C)n(C)c1=O | inconclusive: 13.1 µM [inhibitor, partial curve, poor fit]
CCOC(=O)c1nc2cc3n(c(CC(C)C)c-2c1C)CC(C)=C3C | active: 3.29 µM
CC(C)c1ccc2nc(NC(=O)C3CC3)sc2c1 | inactive
Cc1cc(SCC(=O)c2cccs2)n2nc(C)c(-c3ccc(Cl)cc3)c2n1 | inconclusive: 2.33 µM [inhibitor, full curve, poor fit]
Cn1c(N)c(C(=O)COC(=O)/C=C/c2ccccc2Cl)c(=O)n(C)c1=O | inconclusive: 18.5 µM [inhibitor, single point]
COc1ccc(N(Cc2cc3cc(OC)ccc3[nH]c2=O)S(=O)(=O)c2ccc(NC(C)=O)cc2)cc1 | active: 9.28 µM
CCN(CC)c1ccc(NC(=O)Nc2cccc3ccccc23)cc1 | inconclusive: 18.5 µM [inhibitor, partial curve, poor fit]
CC1CC(C)CN(S(=O)(=O)N2CCCC(C(=O)NCCCN3CCCCC3C)C2)C1 (stereo unspecified) | inconclusive: 8.28 µM [inhibitor, partial curve, poor fit]
CC(C)c1ccc(NC(=O)C(c2ccccc2)N(Cc2ccco2)C(=O)CC2NC(=O)NC2=O)cc1 (stereo unspecified) | inconclusive: 9.28 µM [inhibitor, partial curve, poor fit]
CCC(C)(C)C(=O)Nc1ncc(S(=O)(=O)c2ccc([N+](=O)[O-])cc2)s1 | active: 2.94 µM
COc1cc(OC)cc(-c2nnc(N(C)C(=O)c3ccncc3)s2)c1 | inconclusive: 18.5 µM [inhibitor, single point]
Cc1sc(NC(=O)COc2ccccc2)c(C#N)c1C | inactive
Cc1ccc(C)c(N2N=C(C(=O)Nc3ccccc3N3CCOCC3)CCC2=O)c1 | inconclusive: 11.7 µM [inhibitor, partial curve, poor fit]
CCOC(=O)C1CCN(C2=C(NS(=O)(=O)c3ccc(Br)cc3)C(=O)c3ccccc3C2=O)CC1 | inconclusive: 1.65 µM [inhibitor, full curve]
CCc1ccc(CN(C)C(=O)c2cc(COc3cc(C)c(Cl)c(C)c3)on2)nc1 | inactive
Cc1cc(C)cc(Nc2ccc(C(=O)O)cc2N)c1 | inactive
CC(C)(C)C(=O)Nc1c(Br)c(C2CC2)nn1-c1ccccc1 | inactive
O=C(CN(C1CCCCC1)S(=O)(=O)c1ccc(Cl)cc1)N1CCOCC1 | inconclusive: 16.5 µM [inhibitor, partial curve, poor fit]

Single entries from the entries so far.
Potency with O=C(NCc1ccc(F)cc1)C1CCCN(S(=O)(=O)c2ccc(-n3cnnn3)cc2)C1 (stereo unspecified) is entered as inactive
Potency with COc1cc2cc(CN(Cc3nnnn3C3CCCC3)C3CCCC3)c(=O)[nH]c2cc1OC is entered as inactive

Later entries.

Structure (SMILES) | Potency
Cc1cccc(NC(=O)NNC(=O)CCc2ccccc2)c1 | inconclusive: 8.28 µM [inhibitor, partial curve]
O=[N+]([O-])c1ccc2c(c1N1CCCCC1)=NC1(CCCCC1)[N+]=2[O-] | inactive
Cc1nc2ccccc2n1CC(=O)NC1CCCC1 | inactive
CCOC(=O)c1c(C)n(C)c2ccc(OCC(O)CNC(CC)CO)cc12 (stereo unspecified) | active: 2.08 µM
O=[N+]([O-])c1ccc(C[n+]2cc(-c3ccc(Cl)c(Cl)c3)n3c2CCCCC3)cc1 | inconclusive: 0.0033 µM [inhibitor, full curve, poor fit]
CN(Cc1ccccc1)C(=O)Cn1cccc1C(=O)c1ccccc1 | inactive
CN(CCCN1CCOCC1)C(=O)c1cc(COc2ccc(F)cc2F)on1 | inconclusive: 11.7 µM [inhibitor, single point]
CCOC(=O)C1=C(N)Oc2ccc3ccccc3c2C1c1cccc(O)c1 (stereo unspecified) | inactive
COc1cccc(NC(=O)c2ccc(C(=O)c3ccccc3)o2)c1 | inconclusive: 0.0047 µM [inhibitor, full curve, poor fit]
Clc1ccc(-n2ncc3c(NCc4ccccn4)ncnc32)cc1 | inconclusive: 11.7 µM [inhibitor, single point]
O=C(CNC(=O)c1ccco1)NCC(=O)OCc1ccc(F)cc1 | active: 3.29 µM
O=C(c1n[nH]c(=O)c2ccccc12)N1CCN(c2ccccc2Cl)CC1 | inconclusive: 16.5 µM [inhibitor, single point]
CCOC(=O)c1sc(NC(=O)CSC(=S)N2CCOCC2)nc1C | inconclusive: 18.5 µM [inhibitor, single point]
Cc1ccccc1OCc1nc2ccccc2c(=O)n1/N=C/c1c[nH]c2ccccc12 | inconclusive: 16.5 µM [inhibitor, single point]
COc1ccc(C2CC(c3ccc(Cl)c(Cl)c3)Nc3nc(N)nn32)cc1 (stereo unspecified) | inconclusive: 10.4 µM [inhibitor, single point]
COc1ccccc1OCCn1c(SCC(N)=O)nc2ccccc21 | inconclusive: 2.08 µM [inhibitor, single point]
C/C(=N/NC(=O)Cc1c(C)[nH][nH]c1=O)c1ccc(O)cc1 | inconclusive: 18.5 µM [inhibitor, single point]
COc1ccc(C(=O)NNC(=O)C(=O)Nc2ccc(C)c(Cl)c2)cc1 | inactive
O=c1c(-c2ccccc2)coc2c(CN3CCCCC3)c(O)ccc12 | inconclusive: 8.28 µM [inhibitor, partial curve, poor fit]
CCC(C(=O)NCCN1CCN(C)CC1)n1c(C)c2cnn(-c3ccccc3)c(=O)c2c1C (stereo unspecified) | inconclusive: 4.15 µM [inhibitor, single point]
O=C(N/N=C/c1cc2c(cc1Br)OCO2)c1c[nH]c2ccccc12 | inactive
Cc1c(Cl)cccc1NC(=S)NCCc1ccc(S(N)(=O)=O)cc1 | active: 10.4 µM
O=C(O)c1ccccc1Nc1ccccc1 | inactive
